Assay results as given in publication PMC10694592.
No constants are given. Whether binding was seen depends on the method and setting. In cells and extracts the contact can be indirect. Some entries that bind do so weakly or less than the wild type.

By UniProt entry, the sequences of proteins in these tests, tags left out. Where a name states a change or a piece, a line headed by the entry shows the natural chain unless it says otherwise. Chains listed by the source or under a name are the forms on record and can include a tag or linker.
FLAG-tagged full-length OPTN-IVD-NEMO (Q9Y6K9, form named): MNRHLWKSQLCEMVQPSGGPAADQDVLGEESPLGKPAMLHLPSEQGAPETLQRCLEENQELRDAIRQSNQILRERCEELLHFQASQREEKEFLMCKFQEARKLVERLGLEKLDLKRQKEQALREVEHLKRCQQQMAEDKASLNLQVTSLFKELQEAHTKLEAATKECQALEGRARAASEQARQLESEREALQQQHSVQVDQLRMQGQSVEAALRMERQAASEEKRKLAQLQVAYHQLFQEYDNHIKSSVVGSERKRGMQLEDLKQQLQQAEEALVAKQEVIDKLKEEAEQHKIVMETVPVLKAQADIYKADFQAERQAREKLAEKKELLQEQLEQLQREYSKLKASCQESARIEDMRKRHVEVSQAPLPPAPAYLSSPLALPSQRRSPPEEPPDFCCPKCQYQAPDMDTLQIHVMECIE

Target: FLAG-tagged full-length OPTN-IVD-NEMO (human) (UniProt Q9Y6K9)
Test: cross-linking; disulfide-bonded dimers: lysates (non-ionic detergent) of transfected 293T NEMO KO cells in SDS sample buffer without β-mercaptoethanol, not boiled, SDS-PAGE, anti-NEMO Western blot

- binding: binds
Substance: FLAG-tagged full-length OPTN-IVD-NEMO (from UniProt Q9Y6K9 1-419)
